Reference: PMC5732219
Numbering of substitutions follows the chain as printed. Results are given in words; binding and its absence hold for the method and conditions named. Binding seen in cells or lysates may run through a third protein. Tags and fused reporters may be left off the sequences shown.

How the values were obtained:
Test in all cases: co-IP; anti-FLAG immunoprecipitation from 0.5 mg lysate of HEK293 cells transfected 24 h with FLAG-RABEP2 constructs; immunocomplexes washed in lysis buffer with no additional NaCl; blot with anti-rab5
[1] = molecular target: T1, FLAG-tagged human RABEP2 Ser200Ala/Ser204Ala (human) (UniProt Q9H5N1)
T1 sequence: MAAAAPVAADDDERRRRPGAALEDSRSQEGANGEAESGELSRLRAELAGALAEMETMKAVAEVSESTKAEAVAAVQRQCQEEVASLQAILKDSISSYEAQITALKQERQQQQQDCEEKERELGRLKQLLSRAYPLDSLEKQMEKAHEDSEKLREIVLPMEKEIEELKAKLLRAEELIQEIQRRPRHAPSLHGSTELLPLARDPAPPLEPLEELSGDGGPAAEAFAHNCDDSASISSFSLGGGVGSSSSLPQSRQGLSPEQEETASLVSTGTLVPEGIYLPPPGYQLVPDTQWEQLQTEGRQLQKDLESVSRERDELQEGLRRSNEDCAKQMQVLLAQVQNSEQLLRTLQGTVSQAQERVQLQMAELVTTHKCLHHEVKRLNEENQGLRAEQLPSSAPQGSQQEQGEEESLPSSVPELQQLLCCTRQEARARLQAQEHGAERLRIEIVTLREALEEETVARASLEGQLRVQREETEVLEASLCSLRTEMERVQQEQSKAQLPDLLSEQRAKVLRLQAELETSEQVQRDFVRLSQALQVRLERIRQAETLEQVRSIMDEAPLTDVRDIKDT

[2] = molecular target: T2, FLAG-tagged wild-type human RABEP2 (Rab-GTPase binding effector protein 2) (human) (UniProt Q9H5N1)
T2 sequence: T1 sequence with A200S, A204S

[3] = molecular target: T3, FLAG-tagged human RABEP2 Ser204Glu (human) (UniProt Q9H5N1)
T3 sequence: T1 sequence with A200S, A204E

Measured: binding

Rab5 (endogenous, HEK293 cells) (human (endogenous in HEK293))
no binding: all assays above
